## Library screen at single concentrations

Source: ChEMBL document CHEMBL3988442, “University of Dundee, Small-Polar-MMV Screening Library” (2021).

A: 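Whole-cell growth test on Mycobacterium tuberculosis, read after 3 days in glucose-containing 7H9 medium; the read-out is not stated. Compounds at 500 µM. The record gives no direction; compounds that gave an IC50 in retests scored well above the rest, so higher reads as more growth inhibition. About 18,000 compounds were tested under these conditions; 7.9% (about 1,400) showed 50% or more at least once.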
B: 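Phenotypic screen: M. tuberculosis growth, cholesterol and DPPC medium, 4 days; the read-out is not stated. Tested at 500 µM. The record gives no direction; compounds that gave an IC50 in retests scored well above the rest, so higher reads as more growth inhibition. Size under these conditions: about 18,000 compounds, about 900 of them at 50% or above in at least one test.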

Results are given as percent effect.
The controls that fix the scale are not given in the record; negative values are as filed.
Compounds were drawn at random from those tested, without regard to their results.

structure	A	B
Cc1n[nH]c(C)c1S(=O)(=O)N1CCN(C)CC1	2.01%	5.283%
NS(=O)(=O)CCCC(=O)N1CCC(c2ncc[nH]2)CC1	-9.565%	-7.087%
NCCNC(=O)c1ccncc1	20.11%	28.52%
CC(=O)c1cc(CN2C[C@@H]3[C@@H](CN(C)C)[C@@H]3C2)n(C)c1	-1.443%	-3.256%
CCCn1nnnc1CN1CCN(CC)CC1	-2.889%	-2.726%
CCCc1ncncc1C(=O)NCC1CNCCO1 (centres unmarked)	2.259%	6.023%
COc1ccc(C(=O)NCC2CCCN2)cc1 (centres unmarked)	15.99%	-4.635%
Cc1ncccc1NC(=O)COc1ccccc1C#N	-17.56%	-10.49%
CCC(C)(C)C(=O)Nc1ccc(C)c(C(N)=O)c1	20.91%	25.11%
Cn1nccc1C(=O)NCc1cccs1	42.87%	24%
Cc1n[nH]cc1NC(=O)C1COc2ccccc2C1 (centres unmarked)	5.11%	-6.234%
COc1cccc([S+]([O-])Cc2nnc(C)n2C)c1 (centres unmarked)	11.72%	10.42%
CS(=O)(=O)NCCNC1(c2cccc(Cl)c2)CC1	8.43%	3.86%
COc1cccc(CNCCNc2cccc(C)n2)c1	70.64%	78.11%
CN(CCc1cccs1)CC(=O)NC1CCS(=O)(=O)C1 (centres unmarked)	15.75%	3.199%
Cc1noc(CN2CCN(S(C)(=O)=O)CC2)n1	1.968%	-8.023%
Cc1nn(C)c(C)c1NC(=O)N1CCSCC1	13.86%	9.308%
Cc1nc[nH]c1CN1CCSCC1	-11.9%	-5.886%
C[C@H](NC(=O)COC1CCCCC1)C(N)=O	4.237%	2.973%
C[C@H](N)CNCc1cc(O)c2cc(F)ccc2n1	9.735%	5.958%
CCN(CC)CCNC(=O)c1cc(C2CC2)[nH]n1	17.27%	-9.165%
CCn1ncnc1CN1CCCC2(C1)CN(C)C(=O)O2 (centres unmarked)	16.99%	10.82%
O=C(Cc1cn2ccsc2n1)NCc1ccncc1	-20.77%	-28%
NC[C@@H](O)c1ccc(Cl)cc1	36.96%	13.36%
CCOC(=O)c1nn(CC)c2c1CNCC2	14.35%	3.155%
Nc1ccnn1Cc1ccccn1	1.504%	-24.36%
Cc1ccc(NC(=O)NC2(CCO)CCOCC2)s1	-6.189%	3.038%
O=C1c2ccccc2C(=O)N1CN1CCCCC1	-1.337%	-1.04%
Cc1noc(-c2ccc(=O)n(CC(C)C)n2)n1	-16.46%	-15.24%
O=C(C1CC12CCNCC2)N1CCCC1 (centres unmarked)	-1.182%	-10.72%
CC(NC(=O)c1ccc(C(C)(C)C)cc1)C(N)=O (centres unmarked)	4.764%	-2.897%
CCn1ccnc1C1CCN(CC(=O)N(C)C)CC1	-1.076%	-2.211%
OCCOc1ccc(OCCO)cc1	12.94%	9.29%
OCCCN1CCCN(Cc2ccc(F)cc2)CC1	60.35%	46.01%
CCCNC(=O)NCc1cccnc1N(CC)CC	10%	12.84%
CC1CCCN(C(=O)c2ccc(S(C)(=O)=O)cc2)C1 (centres unmarked)	8.314%	-2.578%
CCN1CCC(CNC(=O)c2nc(C)c[nH]2)CC1	10.64%	-6.078%
COc1ccc(C(=O)N2CCc3ccccc3C2)nn1	38.18%	25.52%
O=C(N[C@H]1C[C@@H]2OCC[C@H]12)c1n[nH]c2ccccc12	28.54%	30.83%
COCCNC(=O)c1csc(-c2ccco2)n1	41.01%	7.675%
COc1ccnc(CN2CCCCC(N)C2)c1OC (centres unmarked)	13.44%	5.534%
NCCCc1ccccc1F	-1.087%	-25.23%
Clc1cnn(C2CCNC2)c1 (centres unmarked)	23.24%	25.82%
COc1ccc(C(C)NCC(C)(C)C(N)=O)c(F)c1 (centres unmarked)	-7.786%	1.38%
CC(C)OCC1CCN(C(=O)c2cccc(=O)[nH]2)CC1	7.027%	4.71%
Cc1nc2ccccc2c(C)c1C(N)=O	2.763%	5.465%
O=C(CN1CCCC1=O)NCCc1cscn1	4.127%	7.78%
COCCN1CCC(CNC(=O)c2coc(Br)c2)CC1	18.68%	2.749%
O=c1[nH]c2ccc(NCc3ccncc3)cc2[nH]1	21.9%	17.51%
O=C(NC1=NCCS1)c1csc(Br)c1	35.32%	18.48%
CNc1ccc(N2CCOCC2)nc1	-101.4%	-96.86%
CC1CN(CCC(=O)NCc2cccs2)CCCO1 (centres unmarked)	19.55%	76.74%
CCN(CC)C(=O)CSc1ncn(-c2ccccc2)n1	32.59%	16.46%
CC(C)(C)C(=O)NCCC(=O)NC1CCS(=O)(=O)C1 (centres unmarked)	1.36%	-1.451%
CC(C)c1noc(CN(C)C(=O)C2=NNC(=O)CC2)n1	3.106%	-3.572%
CNC(=O)CCN1CCC(c2ccc(OC)cc2)CC1	16.37%	11.76%
CCCOC(=O)C(C)NC(=O)c1cccs1 (centres unmarked)	66.7%	68.36%
CC(C)(C)n1ncn(CCOC2CCCCO2)c1=O (centres unmarked)	15.37%	8.687%
NS(=O)(=O)CC1CCNCC1	-6.367%	-15.16%
CC1(C)CCCC1NCCN1CCCS1(=O)=O (centres unmarked)	-6.705%	-2.961%
Cc1ccc(C(=O)NCCNc2ncccn2)c(=O)[nH]1	-2.016%	-21.36%
Nc1nc(SCCO)n[nH]1	7.469%	3.553%
CC(C)(C)OC(=O)N1CCC(CO)C(F)(F)C1 (centres unmarked)	34.05%	28.1%
CC(C#N)CN(C)C(=O)c1cccc(-n2cccc2)c1 (centres unmarked)	28.75%	14.22%
CCC1(O)CN(S(=O)(=O)c2ncn(C)c2Cl)C1	-11.9%	-8.273%
COCCN1CCC(CN(C)C(=O)c2cccn2C)C1 (centres unmarked)	-2.672%	-5.255%

For reference, 8 entries once more:

- CC(C)(C)C(=O)NCCC(=O)NC1CCS(=O)(=O)C1 (centres unmarked) | A: 1.36%; B: -1.451%
- O=C(Cc1cn2ccsc2n1)NCc1ccncc1 | A: -20.77%; B: -28%
- CCCn1nnnc1CN1CCN(CC)CC1 | A: -2.889%; B: -2.726%
- CC(C)(C)OC(=O)N1CCC(CO)C(F)(F)C1 (centres unmarked) | A: 34.05%; B: 28.1%
- O=C1c2ccccc2C(=O)N1CN1CCCCC1 | A: -1.337%; B: -1.04%
- COc1ccc(C(=O)N2CCc3ccccc3C2)nn1 | A: 38.18%; B: 25.52%
- Cc1n[nH]c(C)c1S(=O)(=O)N1CCN(C)CC1 | A: 2.01%; B: 5.283%
- O=c1[nH]c2ccc(NCc3ccncc3)cc2[nH]1 | A: 21.9%; B: 17.51%